Screening data, single-dose tests

Chains of the proteins cited; added tags and fusions are not shown. Residues count along the entry.
UniProt I6X8D2, whole entry: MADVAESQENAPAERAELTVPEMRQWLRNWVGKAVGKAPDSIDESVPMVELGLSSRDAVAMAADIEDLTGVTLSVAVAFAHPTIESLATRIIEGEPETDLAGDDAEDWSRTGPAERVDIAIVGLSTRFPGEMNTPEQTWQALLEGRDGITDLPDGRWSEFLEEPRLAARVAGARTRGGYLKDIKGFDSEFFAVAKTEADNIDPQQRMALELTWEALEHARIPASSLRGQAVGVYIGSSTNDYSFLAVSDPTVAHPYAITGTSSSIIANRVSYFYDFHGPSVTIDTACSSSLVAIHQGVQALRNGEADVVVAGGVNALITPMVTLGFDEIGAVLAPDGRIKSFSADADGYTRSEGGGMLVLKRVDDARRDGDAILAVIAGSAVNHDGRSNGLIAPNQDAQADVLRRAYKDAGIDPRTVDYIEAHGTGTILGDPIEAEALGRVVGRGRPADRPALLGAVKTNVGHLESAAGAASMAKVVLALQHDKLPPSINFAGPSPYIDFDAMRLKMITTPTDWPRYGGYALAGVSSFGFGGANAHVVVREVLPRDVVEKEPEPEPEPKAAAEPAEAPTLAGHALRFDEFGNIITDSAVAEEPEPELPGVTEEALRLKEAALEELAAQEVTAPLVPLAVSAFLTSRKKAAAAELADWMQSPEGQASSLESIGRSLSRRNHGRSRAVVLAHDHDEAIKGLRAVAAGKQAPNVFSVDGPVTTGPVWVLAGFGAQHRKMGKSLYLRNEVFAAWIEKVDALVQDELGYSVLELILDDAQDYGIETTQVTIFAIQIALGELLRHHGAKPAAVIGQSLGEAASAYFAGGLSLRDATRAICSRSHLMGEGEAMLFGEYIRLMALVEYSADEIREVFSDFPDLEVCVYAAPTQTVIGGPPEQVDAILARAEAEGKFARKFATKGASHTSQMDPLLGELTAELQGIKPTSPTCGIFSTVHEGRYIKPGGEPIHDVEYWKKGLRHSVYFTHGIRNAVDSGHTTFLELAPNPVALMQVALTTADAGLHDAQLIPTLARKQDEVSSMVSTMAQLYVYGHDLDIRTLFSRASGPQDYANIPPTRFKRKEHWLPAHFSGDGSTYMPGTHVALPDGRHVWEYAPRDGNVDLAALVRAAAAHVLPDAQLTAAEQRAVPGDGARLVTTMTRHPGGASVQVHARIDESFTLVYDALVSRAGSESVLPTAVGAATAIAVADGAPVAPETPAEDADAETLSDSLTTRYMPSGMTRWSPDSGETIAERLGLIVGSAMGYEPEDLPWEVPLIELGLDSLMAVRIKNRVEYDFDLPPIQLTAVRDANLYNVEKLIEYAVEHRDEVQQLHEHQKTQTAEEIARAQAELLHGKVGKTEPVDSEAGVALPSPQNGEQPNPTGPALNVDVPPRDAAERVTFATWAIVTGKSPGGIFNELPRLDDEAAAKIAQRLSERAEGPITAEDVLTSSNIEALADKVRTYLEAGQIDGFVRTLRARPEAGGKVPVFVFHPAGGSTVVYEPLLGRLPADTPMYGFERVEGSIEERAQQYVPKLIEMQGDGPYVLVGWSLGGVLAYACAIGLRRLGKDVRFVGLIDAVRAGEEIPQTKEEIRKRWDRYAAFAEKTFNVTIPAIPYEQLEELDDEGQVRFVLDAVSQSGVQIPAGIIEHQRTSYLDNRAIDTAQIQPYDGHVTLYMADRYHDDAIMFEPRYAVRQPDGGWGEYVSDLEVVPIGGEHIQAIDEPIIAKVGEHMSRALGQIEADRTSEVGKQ
UniProt A4I591, 1-473: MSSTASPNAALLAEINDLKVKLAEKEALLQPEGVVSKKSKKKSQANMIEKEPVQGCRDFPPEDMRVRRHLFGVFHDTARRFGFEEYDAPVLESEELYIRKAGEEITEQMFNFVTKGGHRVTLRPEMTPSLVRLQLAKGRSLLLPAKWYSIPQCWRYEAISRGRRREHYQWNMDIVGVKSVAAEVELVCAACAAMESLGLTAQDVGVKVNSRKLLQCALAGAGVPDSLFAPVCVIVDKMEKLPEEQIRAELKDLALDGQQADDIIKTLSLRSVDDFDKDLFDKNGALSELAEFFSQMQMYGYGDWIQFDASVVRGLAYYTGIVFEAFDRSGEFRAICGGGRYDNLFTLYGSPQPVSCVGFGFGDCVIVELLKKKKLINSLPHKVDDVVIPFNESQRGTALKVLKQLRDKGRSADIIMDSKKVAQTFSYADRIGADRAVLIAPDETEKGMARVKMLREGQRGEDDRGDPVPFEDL

Source: ChEMBL document CHEMBL3988442, “University of Dundee, Small-Polar-MMV Screening Library” (2021).

Leishmania in macrophages: 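Cell assay of Leishmania donovani living inside macrophages; the read-out is not stated. Concentration: 30 µM. Direction is inferred from retests: higher values go with stronger inhibition. About 69,000 compounds were tested under these conditions; 1.5% (about 1,000) showed 50% or more at least once.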
Pks13 thioesterase: 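Polyketide synthase Pks13, Mycobacterium tuberculosis (UniProt I6X8D2). Enzyme assay of the thioesterase domain of polyketide synthase 13; the read-out is not stated. Concentration: 30 µM. The record gives no direction; the compounds picked for IC50 retests had high values, so higher reads as stronger inhibition. About 67,000 compounds were tested under these conditions; 0.46% (about 300) showed 50% or more at least once.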
LiHisRS: 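Enzyme assay of histidyl-tRNA synthetase; the read-out is not stated. Target: Histidine-tRNA ligase, Leishmania infantum (UniProt A4I591). Compounds at 30 µM. Higher reads as stronger inhibition (inferred: compounds with an IC50 in retests scored well above the rest). The assay is labelled LdHisRS but filed under L. infantum. About 69,000 compounds were tested under these conditions; 0.6% (about 410) showed 50% or more at least once.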

Each number is a percent effect as filed. The controls that fix the scale are not given in the record; negative values are as filed. Compounds were drawn at random from those tested, without regard to their results. Two or more numbers in one place are separate tests of the same structure; such repeats can differ widely. A dash means the value is not listed here; it may have been measured.

| SMILES | Leishmania in macrophages | Pks13 thioesterase | LiHisRS |
|---|---|---|---|
| `CC(C)C(=O)Nc1cccc(OCC(=O)NCc2ccccc2F)c1` | 14.36% | -28.29% | 28.92% |
| `O=C([C@@H]1C[C@@H]2CCN(CCc3ccccc3)C[C@H]2O1)N1CCCC1` | - | -19.12% | 6.569% |
| `CC(C)CCN1CCN(C(=O)c2cccnc2-n2cncn2)CC1` | 5.232% | -16.88% | 26.03% |
| `Cc1nc(Nc2ncc(C)s2)cc(C2CCCN2)n1` (stereo not given) | - | 13.98% | 7.246% |
| `CCc1cnc2c(c1NCc1cccc(OC)c1)c(=O)n(C)c(=O)n2C` | -17.06% | -17.57% | 16.5% |
| `COc1c(C2CCCN2Cc2noc(C(C)C)n2)c(C)nn1C` (stereo not given) | -1.941% | 6.227% | -0.8696% |
| `O=C1CCC(=O)N1c1nn(Cc2ccccc2Cl)cc1Cl` | 7.19% | 15.01% | 12.37% |
| `COc1cccc(S(=O)(=O)N2C[C@@H](N(C)C)[C@H](C(C)C)C2)c1` | 29.92% | -3.048% | -4.396% |
| `c1cc(-c2n[nH]cc2-c2ccnc(N3CCCCCC3)n2)ccn1` | -0.0224% and -10.07% | -19.62% | 22.86% |
| `COc1ccc(C2=CNC(C(F)(F)F)=CC2N)cc1` (stereo not given) | 27.71% | 12.77% | 16.49% |
| `[H][C@]12CN(CC(C)C)C(=O)[C@@]1([H])CN(c1cnccn1)C2` | 30.94% | - | - |
| `O=C(Cc1cccs1)NCc1ccnc(OC2CCOCC2)c1` | -1.555% | 3.567% | 11.4% |
| `c1ccc(CCCC2CN(Cc3ncc[nH]3)CCO2)cc1` (stereo not given) | 3.756% | -15.63% | -29.37% |
| `Cc1ccc(CN2CCC3(CC2)CCN(Cc2ccoc2)CC3)cc1` | - | -28.11% | -113.2% |
| `COc1cccc(CC(=O)N2CCc3ncnc(C)c3CC2)c1` | 16.44% | -8.888% | 10.34% |
| `Cc1cccn2cc(C[S+]([O-])Cc3noc(C(C)C)n3)nc12` (stereo not given) | 6.193% | -12.94% | 15.32% |
| `CC(C)CN1C(=O)CO[C@@H]2CN(C(=O)[C@H]3CCCO3)C[C@H]21` | - | -42.03% | 22.81% |
| `O=C(Cc1cccc(F)c1)NCCNc1ncccn1` | 6.16% | -4.075% | 14.91% |
| `Cc1nc(NC(=O)c2c3c(nn2C2CCS(=O)(=O)C2)CCC3)sc1C` (stereo not given) | 33.53% | -11.25% | 22.67% |
| `CCn1nc2c(cc1=O)CN(CCOc1ccc(C#N)cc1)CC2` | -16.36% | 2.48% | 3.175% |
| `Cc1nn(C)c(Cl)c1CNCCOc1ccc2c(c1)OCO2` | -4.247% | -5.831% | 10.92% |
| `Cc1cc(C[C@@H]2COC[C@@H]2NC(=O)CN2CCOC2=O)on1` | 28.96% | -17.38% | 6.452% |
| `O=C(NCC1CCSCC1)N(CCCO)C1CCc2ccccc21` (stereo not given) | -11.99% | -13.8% | 6.757% |
| `CC(=O)N1Cc2nccn2CC(CNC(=O)c2ccnnc2)C1` (stereo not given) | -2.442% | 8.521% | -3.419% |
| `CN(C)CC1CN(Cc2ccsc2)Cc2nccn2C1` (stereo not given) | - | -9.303% | 15.69% |
| `CCN1C(=O)CCC12CCN(S(=O)(=O)c1ccc(C#N)cc1)CC2` | -1.496% | -60.42% | 3.883% |
| `Cc1nc(C(=O)N2CCN(C(C)c3ccccc3F)CC2)cs1` (stereo not given) | 16.65% | 7.906% | 4% |
| `Cc1ccc(CN2CCOC3(CCN(C(=O)C4CCOC4)CC3)C2)cc1.O=C(O)C(F)(F)F` (stereo not given) | 5.324% and 10.51% | - | - |
| `O=c1[nH]c(CN2CCN(CC(F)(F)F)CC2)nc2ccccc12` | 6.447% | -3.612% | 18.42% |
| `CCCc1nc(N2CCCC3(CCNC3)C2)c2cnn(C)c2n1` (stereo not given) | -7.107% | -11.83% | 23.08% |
| `O=C(Cc1ccco1)N1CCC2(CCOCC2COCC2CC2)CC1` (stereo not given) | 6.193% | -10.05% | 5.825% |
| `O=C(c1ccc2nccn2c1)N1CCCC1c1noc(C2CC2)n1` (stereo not given) | 19.54% | -22.63% | 0% |
| `Cc1ccccc1CNC(=O)N1C[C@H]2C[C@H](C(=O)N3CCCC3)[C@@H](C1)O2` | - | - | 7.895% |
| `Cc1ccsc1CNC1CCCN(Cc2noc(C3CC3)n2)C1` (stereo not given) | 29.68% | -17.71% | 18.18% |
| `CN(C(=O)c1ccc(C#N)cc1)c1nnc(C2CCOC2)s1` (stereo not given) | 25.52% | -7.668% | 8.392% |
| `[H][C@@]12C[C@@H](c3nc(C)no3)CN(Cc3ccoc3)[C@]1([H])CCO2` | 10.16% | - | - |
| `CC(C(=O)N1CCc2sccc2C1)N1CCC(N2CCCC2)CC1` (stereo not given) | 36.19% | -33.09% | 28.57% |
| `Cc1cnc(CN(C)C2CCN(CCn3cc(C#N)cn3)C2)o1` (stereo not given) | 9.291% | 8.293% | 11.9% |
| `O=c1c(-c2ccnc(NC3CCCCC3)n2)cnc2sc(Cl)cn12` | 17.63% and -17% | 7.464% | 8.571% |
| `CC(=O)N1N=C(Cc2ccccc2)OC1C(=O)NCC(C)C` (stereo not given) | 0.521% | 34.04% | 11.88% |
| `c1cnc(OCc2nnc3n2CCN(Cc2ccco2)C3)nc1` | -2.636% | 7.129% | 22% |
| `Cc1nc(N(C)CCCc2nccn2C)c2nc(C)oc2n1` | 15.86% | -19.7% | 11.57% |
| `CCC(=O)NS(=O)(=O)c1cccnc1Nc1cccc(Cl)c1Cl` | -9.788% | 26.95% | 5.747% |
| `Cn1c2c(ccc1=O)CCN(Cc1ccoc1)CC2` | - | 2.084% | 28.72% |
| `CCNC(=O)CCC(=O)N1CCC(Oc2cc(C)ccc2C)CC1` | -11.16% | -5.086% | 17.39% |
| `CC(C)(C)c1nc(CN2CCCC(c3noc(C4CC4)n3)C2)no1` (stereo not given) | 3.215% | 4.92% | 9.649% |
| `c1ccc2c(NC3CCc4ncnn4C3)ncnc2c1` (stereo not given) | 6.411% | -16.9% | 6.667% |
| `O=C(NCc1nnc2n1CCC2)N1CCC2(CCCCC2)CC1` | 5.923% | -33.77% | 20.51% |
| `CN(C)C(=O)[C@H]1C[C@H]2OCC[C@H]2N(Cc2ccc(F)cc2)C1` | - | 39.21% | 20.59% |
| `CC(C)c1noc(CCC(=O)NC(C)c2ccccn2)n1` (stereo not given) | 31.61% | -10.15% | 21.43% |
| `CCn1cc(CN2CCC(NS(C)(=O)=O)CC2)cc1C#N` | 0.01169% | -10.19% | 6.25% |
| `CC(C)NC(=O)c1ccc2nnc(C3CCN(C(=O)NC(C)C)C3)n2c1` (stereo not given) | 13.85% | -35.59% | 6% |
| `CN(C(=O)c1ccccc1Cl)C1CCN(c2ccccn2)CC1` | 12.34% | -25.84% | 10.67% |
| `NCC(CO)Cc1ccc(C(F)(F)F)cc1` (stereo not given) | 17.17% | 0.6155% | 3.109% |
| `CC(NC(=O)NCCCn1cncn1)c1ccc2c(c1)CC(=O)N2` (stereo not given) | 18.34% | -12.23% | 20.18% |
| `C=C(C)CN1CCC(NC(=O)Nc2ccc(F)c(C(=O)NC)c2)CC1` | -27.01% | -17.36% | 20.72% |
| `CCN(Cc1noc(C)n1)C(=O)CC1C(=O)NCCN1CC(C)(C)C` (stereo not given) | 7.42% | -17.02% | 16.81% |
| `C=C(C)COc1cccc(C(=O)N(C)C(C)c2c(C)n[nH]c2C)c1` (stereo not given) | 17.54% | -7.805% | 13.11% |
| `CCn1cc(NC(=O)C2CCN(Cc3noc(C(C)C)n3)CC2)cn1` | 27.55% | -8.695% | 16.22% |
| `Cc1nc(C)n(CC2CCCN2Cc2ccccn2)n1` (stereo not given) | 13.29% | -17.78% | 14.88% |
| `O=C1[C@H]2CN(Cc3nccs3)C[C@H]2CN1c1cncnc1` | - | -2.916% | 13.76% |
| `CN(C)c1nc(CNC(=O)NC2COc3ccccc32)cs1` (stereo not given) | -0.1414% | -21.49% | 31.34% |
| `CN(C)c1cc(CNC(=O)Nc2nncs2)ccn1` | 34.47% | -21.57% | 15.38% |
| `O=C1CN(c2ccc(CNC(=O)NCc3ccoc3)cc2)CCN1` | 1.891% | 12.79% | 36.52% |
| `Cc1nnc(CN(Cc2ccco2)Cc2cccc3c2OCO3)n1C` | -4.573% | -47.51% | 8.29% |
| `O=C(O)C(F)(F)F.[H][C@@]12CCN(C(=O)c3cnn(C)c3)[C@@]1([H])CCN2c1ncc(F)cn1` | 4.387% | - | - |
| `FC(F)(F)c1cc(N2CCc3ncnc(NC4CC4)c3CC2)ncn1` | -28.6% | 6.89% | 3.774% |

For reference, 4 entries once more:

{"smiles": "CC(C)c1noc(CCC(=O)NC(C)c2ccccn2)n1", "stereo": "stereo not given", "Leishmania in macrophages": 31.61, "Pks13 thioesterase": -10.15, "LiHisRS": 21.43}
{"smiles": "COc1cccc(S(=O)(=O)N2C[C@@H](N(C)C)[C@H](C(C)C)C2)c1", "Leishmania in macrophages": 29.92, "Pks13 thioesterase": -3.048, "LiHisRS": -4.396}
{"smiles": "CN(C)C(=O)[C@H]1C[C@H]2OCC[C@H]2N(Cc2ccc(F)cc2)C1", "Pks13 thioesterase": 39.21, "LiHisRS": 20.59}
{"smiles": "CN(C)c1nc(CNC(=O)NC2COc3ccccc32)cs1", "stereo": "stereo not given", "Leishmania in macrophages": -0.1414, "Pks13 thioesterase": -21.49, "LiHisRS": 31.34}